{"sequences": {"note": "By UniProt entry, the sequences of proteins in these tests, tags left out. Residues count along the entry.", "UniProt Q9NVP2": "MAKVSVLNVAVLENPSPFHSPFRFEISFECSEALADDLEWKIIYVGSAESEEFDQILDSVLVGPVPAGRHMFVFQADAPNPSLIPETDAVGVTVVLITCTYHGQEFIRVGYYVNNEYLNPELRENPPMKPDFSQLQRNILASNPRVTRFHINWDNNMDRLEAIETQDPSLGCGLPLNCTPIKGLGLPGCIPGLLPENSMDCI", "UniProt Q07021, residues 74-282": "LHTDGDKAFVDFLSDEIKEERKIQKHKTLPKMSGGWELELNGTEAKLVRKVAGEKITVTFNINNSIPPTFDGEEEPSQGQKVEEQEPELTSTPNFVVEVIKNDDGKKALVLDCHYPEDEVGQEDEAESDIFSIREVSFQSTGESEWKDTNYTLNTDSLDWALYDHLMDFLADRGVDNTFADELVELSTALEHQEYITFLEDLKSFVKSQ", "UniProt O14929": "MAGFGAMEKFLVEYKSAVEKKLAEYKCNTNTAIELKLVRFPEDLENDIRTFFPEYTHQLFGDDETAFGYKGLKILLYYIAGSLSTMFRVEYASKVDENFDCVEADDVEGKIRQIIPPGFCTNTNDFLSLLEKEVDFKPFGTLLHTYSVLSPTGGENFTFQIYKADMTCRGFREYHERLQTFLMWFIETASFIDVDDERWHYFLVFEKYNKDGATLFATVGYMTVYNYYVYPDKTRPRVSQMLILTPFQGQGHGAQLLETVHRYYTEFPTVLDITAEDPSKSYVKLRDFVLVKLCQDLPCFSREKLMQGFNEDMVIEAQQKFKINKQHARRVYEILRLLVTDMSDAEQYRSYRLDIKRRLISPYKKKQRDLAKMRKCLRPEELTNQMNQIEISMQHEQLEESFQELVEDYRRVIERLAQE", "UniProt P0DMV8": "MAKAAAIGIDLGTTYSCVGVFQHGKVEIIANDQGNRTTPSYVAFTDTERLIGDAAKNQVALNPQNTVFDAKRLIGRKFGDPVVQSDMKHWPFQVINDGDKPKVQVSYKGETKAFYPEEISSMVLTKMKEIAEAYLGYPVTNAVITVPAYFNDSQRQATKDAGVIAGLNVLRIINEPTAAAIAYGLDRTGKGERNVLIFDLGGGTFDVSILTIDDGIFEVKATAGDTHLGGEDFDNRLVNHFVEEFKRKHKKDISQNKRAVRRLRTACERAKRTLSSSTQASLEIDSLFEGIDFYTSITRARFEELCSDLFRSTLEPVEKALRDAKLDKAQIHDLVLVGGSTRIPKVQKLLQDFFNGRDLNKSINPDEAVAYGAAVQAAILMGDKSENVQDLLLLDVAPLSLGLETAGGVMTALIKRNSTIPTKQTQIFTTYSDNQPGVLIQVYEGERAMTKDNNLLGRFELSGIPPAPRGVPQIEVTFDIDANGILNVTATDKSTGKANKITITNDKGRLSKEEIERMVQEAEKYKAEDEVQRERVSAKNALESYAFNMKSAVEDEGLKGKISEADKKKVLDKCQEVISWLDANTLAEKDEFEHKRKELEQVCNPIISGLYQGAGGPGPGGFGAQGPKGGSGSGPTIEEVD", "UniProt P11021, residues 19-654": "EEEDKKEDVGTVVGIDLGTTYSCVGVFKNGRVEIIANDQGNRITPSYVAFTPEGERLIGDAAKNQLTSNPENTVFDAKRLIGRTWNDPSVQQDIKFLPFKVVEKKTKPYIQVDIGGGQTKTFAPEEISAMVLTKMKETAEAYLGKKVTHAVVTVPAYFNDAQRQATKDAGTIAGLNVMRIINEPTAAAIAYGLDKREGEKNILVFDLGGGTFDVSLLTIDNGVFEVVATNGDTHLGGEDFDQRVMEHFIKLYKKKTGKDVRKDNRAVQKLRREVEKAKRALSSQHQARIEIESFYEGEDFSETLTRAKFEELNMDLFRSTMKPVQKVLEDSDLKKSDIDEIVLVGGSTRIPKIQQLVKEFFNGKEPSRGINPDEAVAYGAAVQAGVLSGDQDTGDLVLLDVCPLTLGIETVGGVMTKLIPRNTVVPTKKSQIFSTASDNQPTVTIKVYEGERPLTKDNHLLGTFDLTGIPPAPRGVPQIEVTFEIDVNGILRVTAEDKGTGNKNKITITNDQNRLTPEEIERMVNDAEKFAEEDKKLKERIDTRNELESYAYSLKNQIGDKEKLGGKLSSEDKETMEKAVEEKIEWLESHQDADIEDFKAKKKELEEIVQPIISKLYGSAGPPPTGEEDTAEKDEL", "UniProt P11142": "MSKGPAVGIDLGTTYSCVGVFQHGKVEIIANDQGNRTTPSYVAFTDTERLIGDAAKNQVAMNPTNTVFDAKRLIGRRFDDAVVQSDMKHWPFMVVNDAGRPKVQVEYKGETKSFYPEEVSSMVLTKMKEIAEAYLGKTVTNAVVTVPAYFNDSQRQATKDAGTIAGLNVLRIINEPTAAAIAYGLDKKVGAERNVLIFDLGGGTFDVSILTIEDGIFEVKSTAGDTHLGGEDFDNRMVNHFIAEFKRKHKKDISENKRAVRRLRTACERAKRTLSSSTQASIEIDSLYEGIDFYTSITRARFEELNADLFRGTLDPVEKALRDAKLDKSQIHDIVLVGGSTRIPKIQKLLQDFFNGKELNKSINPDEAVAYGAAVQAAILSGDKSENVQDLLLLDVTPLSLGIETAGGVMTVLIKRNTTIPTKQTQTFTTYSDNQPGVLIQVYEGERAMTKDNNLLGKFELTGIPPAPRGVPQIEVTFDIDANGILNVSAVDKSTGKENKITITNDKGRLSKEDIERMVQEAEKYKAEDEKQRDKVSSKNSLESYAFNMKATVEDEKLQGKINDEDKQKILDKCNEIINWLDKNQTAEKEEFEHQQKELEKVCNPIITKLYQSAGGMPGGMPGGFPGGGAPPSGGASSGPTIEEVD", "UniProt O00410": "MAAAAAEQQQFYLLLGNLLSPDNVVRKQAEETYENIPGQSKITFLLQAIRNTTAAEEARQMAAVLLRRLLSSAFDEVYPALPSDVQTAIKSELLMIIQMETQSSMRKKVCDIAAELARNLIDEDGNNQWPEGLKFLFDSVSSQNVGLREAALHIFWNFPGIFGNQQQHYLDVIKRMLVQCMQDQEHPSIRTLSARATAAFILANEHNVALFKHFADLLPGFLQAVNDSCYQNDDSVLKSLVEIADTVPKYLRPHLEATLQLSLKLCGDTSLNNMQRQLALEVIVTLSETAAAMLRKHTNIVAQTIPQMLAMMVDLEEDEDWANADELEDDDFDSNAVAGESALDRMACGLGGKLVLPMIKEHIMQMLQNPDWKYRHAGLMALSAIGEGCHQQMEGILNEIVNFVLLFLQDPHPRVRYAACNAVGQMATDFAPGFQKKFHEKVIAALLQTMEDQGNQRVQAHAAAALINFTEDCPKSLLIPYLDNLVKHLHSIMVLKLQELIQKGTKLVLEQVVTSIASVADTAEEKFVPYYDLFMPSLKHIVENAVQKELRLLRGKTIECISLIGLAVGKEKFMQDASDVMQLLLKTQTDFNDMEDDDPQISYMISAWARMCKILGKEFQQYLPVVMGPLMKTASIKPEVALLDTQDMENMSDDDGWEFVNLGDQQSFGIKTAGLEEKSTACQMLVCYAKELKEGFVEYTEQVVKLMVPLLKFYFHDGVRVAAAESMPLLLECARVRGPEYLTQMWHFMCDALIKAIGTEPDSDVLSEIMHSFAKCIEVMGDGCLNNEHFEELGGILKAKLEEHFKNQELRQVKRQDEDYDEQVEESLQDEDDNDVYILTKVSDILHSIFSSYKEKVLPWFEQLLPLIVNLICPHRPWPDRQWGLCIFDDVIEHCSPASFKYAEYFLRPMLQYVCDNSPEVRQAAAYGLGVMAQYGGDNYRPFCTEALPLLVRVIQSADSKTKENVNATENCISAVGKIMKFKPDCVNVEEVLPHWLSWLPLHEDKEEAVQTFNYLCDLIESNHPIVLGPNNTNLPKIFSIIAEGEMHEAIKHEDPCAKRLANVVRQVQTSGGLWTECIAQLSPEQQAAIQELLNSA"}, "source": "paper PMC9560165", "note": "Results are given in words; binding and its absence hold for the method and conditions named. In cells and extracts the contact can be indirect. A yes stands for co-enrichment or nearness to the bait. Other partners may have been found. No binding means not detected with the bait."}
{"target": "EGFP-TEV-sNASP (human) (UniProt P49321)", "experiment": "affinity purification with mass spectrometry; GFP-Trap pull-down of eGFP-sNASP from HEK293-F, TEV release, 1D native gel; bands cut out, in-gel digestion, LC-MS/MS"}
{"substance": "ASF1B (from UniProt Q9NVP2 1-202)", "binding": "binds"}
{"substance": "C1QBP (from UniProt Q07021 74-282)", "binding": "no binding"}
{"substance": "HAT1 (from UniProt O14929 1-419)", "binding": "binds"}
{"substance": "HSPA1A (from UniProt P0DMV8 1-641)", "binding": "binds"}
{"substance": "HSPA5 (from UniProt P11021 19-654)", "binding": "binds"}
{"substance": "HSPA8 (from UniProt P11142 1-646)", "binding": "binds"}
{"substance": "importin-5 (endogenous) (from UniProt O00410 1-1097)", "binding": "no binding"}
